The values that follow come from patent publication US8598325B2, “Solid-phase microextraction coatings and methods for their preparation” (priority 2002, dated 2013).

Data set [1] can be described thus: DI-SPME extraction of triazole pesticides from grape matrix with commercial SPME fibres. The settings on record: DI mode, 30 min at 30° C., mean ± SD (n=3).
Data set [2] is described as follows: HS-SPME extraction of triazole pesticides from grape matrix with commercial SPME fibres. The following applies: HS mode, 60 min at 70° C., mean ± SD (n=3).
For data set [3] the following is noted: HS-SPME, 100 μg/L aqueous solution, at or near equilibrium.

SMILES strings stand for the structures.

Turning to `CCCCC(O)(Cn1cncn1)c1ccc(Cl)cc1Cl` (centres unmarked) [Hexaconazole, hexaconazole], the “Amount Extracted” value in data set [1] (Car/PDMS 75 μm fibre) was 0.30 ± 0.02%; in data set [1] (DVB/Car/PDMS 50/30 μm fibre), 1.2 ± 0.2%; in data set [1] (PA 85 μm fibre) it was 1.8 ± 0.3%; in data set [1] (PDMS 100 μm fibre) it was 1.2 ± 0.2%; in data set [1] (PDMS/DVB 65 μm fibre) it was 4.8 ± 0.3%; in data set [2] (DVB/Car/PDMS 50/30 μm fibre), 0.1 ± 0.01%. Further, the “Amount Extracted” value in data set [2] (PA 85 μm fibre) was 0.16 ± 0.01%; in data set [2] (PDMS 100 μm fibre), 0.14 ± 0.01%; in data set [2] (PDMS/DVB 65 μm fibre), 0.19 ± 0.01%.
Consider `CCCC(Cn1cncn1)c1ccc(Cl)cc1Cl` (centres unmarked) [Penconazole, penconazole], for which the “Amount Extracted” value in data set [1] (Car/PDMS 75 μm fibre) stood at 0.40 ± 0.09%; in data set [1] (DVB/Car/PDMS 50/30 μm fibre), 3.0 ± 0.2%; in data set [1] (PA 85 μm fibre), 4.3 ± 0.4%; in data set [1] (PDMS 100 μm fibre), 4.6 ± 0.2%; in data set [1] (PDMS/DVB 65 μm fibre), 6.7 ± 0.6%; in data set [2] (DVB/Car/PDMS 50/30 μm fibre), 0.31 ± 0.02%. In addition, the “Amount Extracted” value stood at 0.45 ± 0.01% in data set [2] (PA 85 μm fibre), 0.38 ± 0.03% in data set [2] (PDMS 100 μm fibre) and 0.51 ± 0.07% in data set [2] (PDMS/DVB 65 μm fibre).
Take `CC(C)(C)C(=O)C(Oc1ccc(Cl)cc1)n1cncn1` (centres unmarked) [Triadimefon, triadimefon]: the “Amount Extracted” value in data set [1] (Car/PDMS 75 μm fibre) is 2.0 ± 0.5%; in data set [1] (DVB/Car/PDMS 50/30 μm fibre) it was 9.4 ± 0.6%; in data set [1] (PA 85 μm fibre) it was 8.2 ± 0.6%; in data set [1] (PDMS 100 μm fibre) it was 5.6 ± 0.7%; in data set [1] (PDMS/DVB 65 μm fibre) it was 15.2 ± 0.8%; in data set [2] (DVB/Car/PDMS 50/30 μm fibre) it was 0.16 ± 0.01%. The “Amount Extracted” value in data set [2] (PA 85 μm fibre) was found to be 0.17 ± 0.01%; in data set [2] (PDMS 100 μm fibre), 0.14 ± 0.01%; in data set [2] (PDMS/DVB 65 μm fibre), 0.20 ± 0.01%.
Regarding `CC(C)(C)C(O)C(Oc1ccc(Cl)cc1)n1cncn1` (centres unmarked) [Triadimenol, triadimenol], the “Amount Extracted” value in data set [1] (Car/PDMS 75 μm fibre) was 0.20 ± 0.08%; in data set [1] (DVB/Car/PDMS 50/30 μm fibre) it was 1.4 ± 0.2%; in data set [1] (PA 85 μm fibre), 1.2 ± 0.2%; in data set [1] (PDMS 100 μm fibre) it was 0.4 ± 0.2%; in data set [1] (PDMS/DVB 65 μm fibre) it was 4.2 ± 0.3%; in data set [2] (PDMS/DVB 65 μm fibre), 0.04 ± 0.01%.
For `c1ccccc1` [benzene], in data set [3], the “Amount extracted by the PDMS-coated SPME fibre compared to commercial PDMS/DVB fibre” value is reported as “did not statistically differ”.
On to `Cc1ccccc1C` [o-xylene], for which the “Amount extracted by the PDMS-coated SPME fibre compared to commercial PDMS/DVB fibre” value in data set [3] is listed as “around 20%”.
